In patent publication US20200030415A1 (priority 2018, published 2020):
Some entries share one result that the patent states for a list of compounds.

Tested on: migraine
Details: human, in vivo

Question: OnabotulinumtoxinA was tested. Which headache days did it give?
Answer: The headache days was 10-12 days a month.
